2 molecules from publication PMC6817822 can be followed below.

The chains behind the UniProt entries cited, without tags or fusion partners.
UniProt P46937: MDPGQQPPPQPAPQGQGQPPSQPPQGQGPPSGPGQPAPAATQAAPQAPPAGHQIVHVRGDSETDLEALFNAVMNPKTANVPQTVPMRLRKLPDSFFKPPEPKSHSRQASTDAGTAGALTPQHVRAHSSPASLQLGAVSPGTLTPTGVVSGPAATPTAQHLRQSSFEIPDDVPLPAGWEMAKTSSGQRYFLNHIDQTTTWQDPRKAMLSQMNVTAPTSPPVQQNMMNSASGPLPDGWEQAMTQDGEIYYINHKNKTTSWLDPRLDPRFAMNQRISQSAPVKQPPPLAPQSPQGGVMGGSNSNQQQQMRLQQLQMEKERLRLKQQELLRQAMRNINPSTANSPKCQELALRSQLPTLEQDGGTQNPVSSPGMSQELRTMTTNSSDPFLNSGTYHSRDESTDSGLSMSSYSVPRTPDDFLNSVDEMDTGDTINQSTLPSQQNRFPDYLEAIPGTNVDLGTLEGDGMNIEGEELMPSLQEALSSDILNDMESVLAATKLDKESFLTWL

Test [1] deals with T1, PR55α regulatory subunit of PP2A (human (endogenous in CD18/HPAF)) (UniProt P63151).
T1 sequence: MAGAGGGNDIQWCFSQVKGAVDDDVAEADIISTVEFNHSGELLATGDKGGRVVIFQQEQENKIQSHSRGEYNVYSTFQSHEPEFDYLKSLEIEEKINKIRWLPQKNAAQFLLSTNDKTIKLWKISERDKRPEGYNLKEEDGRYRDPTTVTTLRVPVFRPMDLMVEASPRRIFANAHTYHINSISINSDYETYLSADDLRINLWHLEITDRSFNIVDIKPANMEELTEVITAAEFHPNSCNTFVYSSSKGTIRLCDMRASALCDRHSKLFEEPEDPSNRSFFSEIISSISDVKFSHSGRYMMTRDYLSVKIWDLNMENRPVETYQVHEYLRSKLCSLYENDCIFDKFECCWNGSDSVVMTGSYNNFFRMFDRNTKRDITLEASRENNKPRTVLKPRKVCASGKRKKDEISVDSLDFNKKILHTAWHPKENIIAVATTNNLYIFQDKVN
Nature of the test: co-IP; reciprocal co-immunoprecipitation from 1 mg lysate of CD18/HPAF cells expressing Control-shRNA or PR55α-shRNA, with anti-PR55α (100C1) or anti-YAP antibody; immunoblotting; nonimmunized IgG as control; in Fig. 6b half of the anti-PR55α precipitate was treated with shrimp alkaline phosphatase (10 units/ml, 37 °C, 1 h). In general terms: A western blot detects proteins with antibodies after separation by electrophoresis.

Test [2] concerns the target Yes-associated protein (YAP) (human (endogenous in CD18/HPAF)) (UniProt P46937). Described as above.

These are yes or no findings as the source states them, for the method shown. In cells and extracts the contact can be indirect. Some entries that bind do so weakly or less than the wild type.

On to “Yes-associated protein (YAP) (from UniProt P46937 1-504)”, for which, in test [1], the binding result was “binds”.

B1: PR55α regulatory subunit of PP2A (protein, UniProt P63151 1-447)
chain: T1 sequence
With B1, the binding entry in test [2] is “binds”.
